PubChem BioAssay AID1259405 – NCATS – 2018
Here is one part, drawn at random, of about 50,000 deposited reagents. Of all reagents, about 4,000 (8%) are marked active. 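Mouse siRNA library applied to hamster cells; one well for each siRNA.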 A number with no mark means an inactive call. Reagents against one gene are numbered here.

Assay: 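Silenced genes that increase secreted GFP made by CHO cells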 (primary screen)
Cells: Chinese hamster CHO-K1 ovary cells with stable secreted eGFP expression
Reagent: single siRNA against mouse genes, 0.8 pmol siRNA per well (2 µl of 400 nM stock)
Time to read-out: 3 days
Detection: 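Percent of the per-plate non-targeting control median for intracellular GFP per well by laser scanning cytometry and for cell viability by ATP luminescence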
Scale: GFP, % of control: higher = more GFP per well, higher productivity; viability (ATP), % of control: higher = more viable cells (more ATP)
Call rule: 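a knock-down is called active if GFP reaches 120% or more of non-targeting control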

gene knocked down | siRNA no. | GFP, % of control | viability (ATP), % of control
Ptx3 | 1 | 68.2 | 65.6
Ptx3 | 2 | 52.1 | 26.1
Ptx3 | 3 | 54.9 | 54.5
1700018F24Rik | 1 | 64.5 | 72.9
1700018F24Rik | 2 | 83.5 | 102
1700018F24Rik | 3 | 79.7 | 84.7
Pdia5 | 1 | 58.1 | 46.4
Pdia5 | 2 | 102 | 67.9
Pdia5 | 3 | 89.9 | 79.9
Sox30 | 1 | 66.7 | 63.8
Sox30 | 2 | 73.4 | 71.4
Sox30 | 3 | 75.7 | 62
Myef2 | 1 | 77.5 | 99.8
Myef2 | 2 | 73.9 | 87.8
Myef2 | 3 | 70.6 | 71.3
Pdcd6 | 1 | 63.4 | 73
Pdcd6 | 2 | 35.1 | 40.9
Slc6a3 | 1 | 58.5 | 83.6
Slc6a3 | 2 | 83.3 | 71.5
Slc6a3 | 3 | 83.7 | 69.3
Unc79 | 1 | 61.9 | 78.7
Unc79 | 2 | 57.9 | 72.4
Unc79 | 3 | 137 (active) | 92.1
Igdcc3 | 1 | 80.2 | 47.8
Igdcc3 | 2 | 68.2 | 48
Igdcc3 | 3 | 110 | 108
Ercc8 | 1 | 58.4 | 54.6
Ercc8 | 2 | 149 (active) | 97.8
Ercc8 | 3 | 113 | 103
Zfp326 | 1 | 56.7 | 51.3
Zfp326 | 2 | 79.5 | 83.7
Zfp326 | 3 | 85.9 | 99.8
Papss1 | 1 | 113 | 93.4
Crot | 1 | 94.6 | 83.3
Crot | 2 | 117 | 66.1
Crot | 3 | 112 | 91.3
Tubb3 | 1 | 48.9 | 79
Tubb3 | 2 | 41.2 | 70.6
Atp6v0d2 | 1 | 85.2 | 71.6
Atp6v0d2 | 2 | 71.7 | 86.4
Atp6v0d2 | 3 | 49.7 | 52
Or10al5 | 1 | 108 | 81.7
Or10al5 | 2 | 98.5 | 100
Or10al5 | 3 | 52.8 | 30.2
Calhm6 | 1 | 57.8 | 39.8
Calhm6 | 2 | 28.6 | 33.7
Calhm6 | 3 | 102 | 74.4
H2-Aa | 1 | 73.5 | 60
H2-Aa | 2 | 35.4 | 35.8
H2-Aa | 3 | 30.7 | 27
Efl1 | 1 | 72.9 | 72.9
Efl1 | 2 | 51.9 | 46
Efl1 | 3 | 88.6 | 81.8
Clcc1 | 1 | 70.4 | 62.1
Clcc1 | 2 | 97.8 | 82.4
Clcc1 | 3 | 48.4 | 51.9
Gfpt2 | 1 | 122 (active) | 102
Gfpt2 | 2 | 108 | 170
Gfpt2 | 3 | 99 | 87.3

Hits, of those listed so far:
gene knocked down | siRNA no. | GFP, % of control | viability (ATP), % of control
Unc79 | 3 | 137 (active) | 92.1
Ercc8 | 2 | 149 (active) | 97.8
Gfpt2 | 1 | 122 (active) | 102
